Consider seven molecules from PMC6797079.

Substrate in experiment [1]: NIS Y242A, MYC- or HA-tagged (human) (UniProt Q92911)
Put plainly: proximity ligation; Duolink In Situ (Detection Reagents Red) with anti-MYC and anti-HA antibodies on fixed, permeabilised SW1736 and HeLa cells 48 hours after transfection; signal if the two are fewer than 40 nm apart.

Substrate in experiment [2]: NIS Q471A, MYC- or HA-tagged (human) (UniProt Q92911)
The description is as above.

Substrate in experiment [3]: NIS D237A, cerulean- or citrine-tagged (human) (UniProt Q92911)
Put plainly: FRET or BRET; SW1736 and HeLa cells cotransfected with NIS variants conjugated to cerulean or citrine, spinning disk confocal imaging 48 hours post-transfection; corrected FRET (arbitrary units) after subtraction of CFP and YFP cross talk.

Substrate in experiment [4]: NIS Y242A, cerulean- or citrine-tagged (human) (UniProt Q92911)
The description is as above.

Substrate in experiment [5]: NIS T243A, cerulean- or citrine-tagged (human) (UniProt Q92911)
The description is as above.

Substrate in experiment [6]: NIS A525F, MYC- or HA-tagged (human) (UniProt Q92911)
Put plainly: proximity ligation; Duolink In Situ (Detection Reagents Red) with anti-MYC and anti-HA antibodies on fixed, permeabilised SW1736 and HeLa cells 48 hours after transfection; signal if the two are fewer than 40 nm apart.

Substrate in experiment [7]: NIS T243A, MYC- or HA-tagged (human) (UniProt Q92911)
The experiment is described as above.

No constants are given. Whether binding was seen depends on the method and setting. In cells and extracts the contact can be indirect. Some binding calls cover weakened binding; strength is not graded here. Tags and fused reporters may be left off the sequences shown.

B1: NIS Y242A, MYC- or HA-tagged (protein, UniProt Q92911 1-643)
chain: MEAVETGERPTFGAWDYGVFALMLLVSTGIGLWVGLARGGQRSAEDFFTGGRRLAALPVGLSLSASFMSAVQVLGVPSEAYRYGLKFLWMCLGQLLNSVLTALLFMPVFYRLGLTSTYEYLEMRFSRAVRLCGTLQYIVATMLYTGIVIYAPALILNQVTGLDIWASLLSTGIICTFYTAVGGMKAVVWTDVFQVVVMLSGFWVVLARGVMLVGGPRQVLTLAQNHSRINLMDFNPDPRSRATFWTFVVGGTLVWLSMYGVNQAQVQRYVACRTEKQAKLALLINQVGLFLIVSSAACCGIVMFVFYTDCDPLLLGRISAPDQYMPLLVLDIFEDLPGVPGLFLACAYSGTLSTASTSINAMAAVTVEDLIKPRLRSLAPRKLVIISKGLSLIYGSACLTVAALSSLLGGGVLQGSFTVMGVISGPLLGAFILGMFLPACNTPGVLAGLGAGLALSLWVALGATLYPPSEQTMRVLPSSAARCVALSVNASGLLDPALLPANDSSRAPSSGMDASRPALADSFYAISYLYYGALGTLTTVLCGALISCLTGPTKRSTLAPGLLWWDLARQTASVAPKEEVAILDDNLVKGPEELPTGNKKPPGFLPTNEDRLFFLGQKELEGAGSWTPCVGHDGGRDQQETNL
In the case of B1, in experiment [1], the binding entry is “binds”.

B2: NIS Q471A, MYC- or HA-tagged (protein, UniProt Q92911 1-643)
chain: MEAVETGERPTFGAWDYGVFALMLLVSTGIGLWVGLARGGQRSAEDFFTGGRRLAALPVGLSLSASFMSAVQVLGVPSEAYRYGLKFLWMCLGQLLNSVLTALLFMPVFYRLGLTSTYEYLEMRFSRAVRLCGTLQYIVATMLYTGIVIYAPALILNQVTGLDIWASLLSTGIICTFYTAVGGMKAVVWTDVFQVVVMLSGFWVVLARGVMLVGGPRQVLTLAQNHSRINLMDFNPDPRSRYTFWTFVVGGTLVWLSMYGVNQAQVQRYVACRTEKQAKLALLINQVGLFLIVSSAACCGIVMFVFYTDCDPLLLGRISAPDQYMPLLVLDIFEDLPGVPGLFLACAYSGTLSTASTSINAMAAVTVEDLIKPRLRSLAPRKLVIISKGLSLIYGSACLTVAALSSLLGGGVLQGSFTVMGVISGPLLGAFILGMFLPACNTPGVLAGLGAGLALSLWVALGATLYPPSEATMRVLPSSAARCVALSVNASGLLDPALLPANDSSRAPSSGMDASRPALADSFYAISYLYYGALGTLTTVLCGALISCLTGPTKRSTLAPGLLWWDLARQTASVAPKEEVAILDDNLVKGPEELPTGNKKPPGFLPTNEDRLFFLGQKELEGAGSWTPCVGHDGGRDQQETNL
Take B2: the binding entry in experiment [2] is listed as “binds”.

B3: NIS D237A, cerulean- or citrine-tagged (protein, UniProt Q92911 1-643)
chain: MEAVETGERPTFGAWDYGVFALMLLVSTGIGLWVGLARGGQRSAEDFFTGGRRLAALPVGLSLSASFMSAVQVLGVPSEAYRYGLKFLWMCLGQLLNSVLTALLFMPVFYRLGLTSTYEYLEMRFSRAVRLCGTLQYIVATMLYTGIVIYAPALILNQVTGLDIWASLLSTGIICTFYTAVGGMKAVVWTDVFQVVVMLSGFWVVLARGVMLVGGPRQVLTLAQNHSRINLMDFNPAPRSRYTFWTFVVGGTLVWLSMYGVNQAQVQRYVACRTEKQAKLALLINQVGLFLIVSSAACCGIVMFVFYTDCDPLLLGRISAPDQYMPLLVLDIFEDLPGVPGLFLACAYSGTLSTASTSINAMAAVTVEDLIKPRLRSLAPRKLVIISKGLSLIYGSACLTVAALSSLLGGGVLQGSFTVMGVISGPLLGAFILGMFLPACNTPGVLAGLGAGLALSLWVALGATLYPPSEQTMRVLPSSAARCVALSVNASGLLDPALLPANDSSRAPSSGMDASRPALADSFYAISYLYYGALGTLTTVLCGALISCLTGPTKRSTLAPGLLWWDLARQTASVAPKEEVAILDDNLVKGPEELPTGNKKPPGFLPTNEDRLFFLGQKELEGAGSWTPCVGHDGGRDQQETNL
Take B3: the binding entry in experiment [3] is “binds”.

B4: NIS Y242A, cerulean- or citrine-tagged (protein, UniProt Q92911 1-643)
chain: MEAVETGERPTFGAWDYGVFALMLLVSTGIGLWVGLARGGQRSAEDFFTGGRRLAALPVGLSLSASFMSAVQVLGVPSEAYRYGLKFLWMCLGQLLNSVLTALLFMPVFYRLGLTSTYEYLEMRFSRAVRLCGTLQYIVATMLYTGIVIYAPALILNQVTGLDIWASLLSTGIICTFYTAVGGMKAVVWTDVFQVVVMLSGFWVVLARGVMLVGGPRQVLTLAQNHSRINLMDFNPDPRSRATFWTFVVGGTLVWLSMYGVNQAQVQRYVACRTEKQAKLALLINQVGLFLIVSSAACCGIVMFVFYTDCDPLLLGRISAPDQYMPLLVLDIFEDLPGVPGLFLACAYSGTLSTASTSINAMAAVTVEDLIKPRLRSLAPRKLVIISKGLSLIYGSACLTVAALSSLLGGGVLQGSFTVMGVISGPLLGAFILGMFLPACNTPGVLAGLGAGLALSLWVALGATLYPPSEQTMRVLPSSAARCVALSVNASGLLDPALLPANDSSRAPSSGMDASRPALADSFYAISYLYYGALGTLTTVLCGALISCLTGPTKRSTLAPGLLWWDLARQTASVAPKEEVAILDDNLVKGPEELPTGNKKPPGFLPTNEDRLFFLGQKELEGAGSWTPCVGHDGGRDQQETNL
Turning to B4, in experiment [4], the binding entry is “binds”.

B5: NIS T243A, cerulean- or citrine-tagged (protein, UniProt Q92911 1-643)
chain: MEAVETGERPTFGAWDYGVFALMLLVSTGIGLWVGLARGGQRSAEDFFTGGRRLAALPVGLSLSASFMSAVQVLGVPSEAYRYGLKFLWMCLGQLLNSVLTALLFMPVFYRLGLTSTYEYLEMRFSRAVRLCGTLQYIVATMLYTGIVIYAPALILNQVTGLDIWASLLSTGIICTFYTAVGGMKAVVWTDVFQVVVMLSGFWVVLARGVMLVGGPRQVLTLAQNHSRINLMDFNPDPRSRYAFWTFVVGGTLVWLSMYGVNQAQVQRYVACRTEKQAKLALLINQVGLFLIVSSAACCGIVMFVFYTDCDPLLLGRISAPDQYMPLLVLDIFEDLPGVPGLFLACAYSGTLSTASTSINAMAAVTVEDLIKPRLRSLAPRKLVIISKGLSLIYGSACLTVAALSSLLGGGVLQGSFTVMGVISGPLLGAFILGMFLPACNTPGVLAGLGAGLALSLWVALGATLYPPSEQTMRVLPSSAARCVALSVNASGLLDPALLPANDSSRAPSSGMDASRPALADSFYAISYLYYGALGTLTTVLCGALISCLTGPTKRSTLAPGLLWWDLARQTASVAPKEEVAILDDNLVKGPEELPTGNKKPPGFLPTNEDRLFFLGQKELEGAGSWTPCVGHDGGRDQQETNL
Regarding B5, in experiment [5], the binding entry is “binds”.

B6: NIS A525F, MYC- or HA-tagged (protein, UniProt Q92911 1-643)
chain: MEAVETGERPTFGAWDYGVFALMLLVSTGIGLWVGLARGGQRSAEDFFTGGRRLAALPVGLSLSASFMSAVQVLGVPSEAYRYGLKFLWMCLGQLLNSVLTALLFMPVFYRLGLTSTYEYLEMRFSRAVRLCGTLQYIVATMLYTGIVIYAPALILNQVTGLDIWASLLSTGIICTFYTAVGGMKAVVWTDVFQVVVMLSGFWVVLARGVMLVGGPRQVLTLAQNHSRINLMDFNPDPRSRYTFWTFVVGGTLVWLSMYGVNQAQVQRYVACRTEKQAKLALLINQVGLFLIVSSAACCGIVMFVFYTDCDPLLLGRISAPDQYMPLLVLDIFEDLPGVPGLFLACAYSGTLSTASTSINAMAAVTVEDLIKPRLRSLAPRKLVIISKGLSLIYGSACLTVAALSSLLGGGVLQGSFTVMGVISGPLLGAFILGMFLPACNTPGVLAGLGAGLALSLWVALGATLYPPSEQTMRVLPSSAARCVALSVNASGLLDPALLPANDSSRAPSSGMDASRPALADSFYFISYLYYGALGTLTTVLCGALISCLTGPTKRSTLAPGLLWWDLARQTASVAPKEEVAILDDNLVKGPEELPTGNKKPPGFLPTNEDRLFFLGQKELEGAGSWTPCVGHDGGRDQQETNL
As for B6, the binding entry in experiment [6] is given as “binds”.

B7: NIS T243A, MYC- or HA-tagged (protein, UniProt Q92911 1-643)
chain: MEAVETGERPTFGAWDYGVFALMLLVSTGIGLWVGLARGGQRSAEDFFTGGRRLAALPVGLSLSASFMSAVQVLGVPSEAYRYGLKFLWMCLGQLLNSVLTALLFMPVFYRLGLTSTYEYLEMRFSRAVRLCGTLQYIVATMLYTGIVIYAPALILNQVTGLDIWASLLSTGIICTFYTAVGGMKAVVWTDVFQVVVMLSGFWVVLARGVMLVGGPRQVLTLAQNHSRINLMDFNPDPRSRYAFWTFVVGGTLVWLSMYGVNQAQVQRYVACRTEKQAKLALLINQVGLFLIVSSAACCGIVMFVFYTDCDPLLLGRISAPDQYMPLLVLDIFEDLPGVPGLFLACAYSGTLSTASTSINAMAAVTVEDLIKPRLRSLAPRKLVIISKGLSLIYGSACLTVAALSSLLGGGVLQGSFTVMGVISGPLLGAFILGMFLPACNTPGVLAGLGAGLALSLWVALGATLYPPSEQTMRVLPSSAARCVALSVNASGLLDPALLPANDSSRAPSSGMDASRPALADSFYAISYLYYGALGTLTTVLCGALISCLTGPTKRSTLAPGLLWWDLARQTASVAPKEEVAILDDNLVKGPEELPTGNKKPPGFLPTNEDRLFFLGQKELEGAGSWTPCVGHDGGRDQQETNL
Turning to B7, the binding result in experiment [7] is listed as “binds”.
